Some results were stated once for a whole list of compounds, not compound by compound.
Legend:
[1] = target: NRAS (Homo sapiens, UniProt P01111); experiment: Cellular Phospho-ERK AlphaLISA assay, MEF-NRAS cells; format: cell-based, mouse; conditions: RAS-less MEFs expressing NRAS only; read-out: relative IC50, phospho-ERK, MEF-NRAS
[2] = target: HRAS (Homo sapiens, UniProt P01112); experiment: Cellular Phospho-ERK AlphaLISA assay, MEF-HRAS cells; format: cell-based, mouse; conditions: RAS-less MEFs expressing HRAS only; read-out: relative IC50, phospho-ERK, MEF-HRAS

| Compound | IC50 [1] | IC50 [2] |
| --- | --- | --- |
| CN(C)[C@H]1CN(c2ncc3c4c(c(-c5ncc(F)c6sc(N)c(C#N)c56)c(Cl)c3n2)COC4)C[C@H]1O (atropisomer, axis not shown) [Example 68C, 2-Amino-4-(5-chloro-3-((3S,4R)-3-(dimethylamino)-4-hydroxypyrrolidin-1-yl)-7,9-dihydrofuro[3,4-f]quinazolin-6-yl)-7-fluorothieno[3,2-c]pyridine-3-carbonitrile, Atropsiomer 1 formic acid] | > 2 µM | > 2 µM |
| CN(C)[C@H]1CCN(c2ncc3c4c(c(-c5ccc(F)c6sc(N)c(C#N)c56)c(Cl)c3n2)COC4)C1 (atropisomer, axis not shown) [Example 75A, 2-Amino-4-(5-chloro-3-((S)-3-(dimethylamino)pyrrolidin-1-yl)-7,9-dihydrofuro[3,4-f]quinazolin-6-yl)-7-fluorobenzo[b]thiophene-3-carbonitrile, Atropsiomer 2] | > 2 µM | > 2 µM |
| CC(C)N(C)[C@@H]1CN(c2ncc3c4c(c(-c5c(F)ccc6sc(N)c(C#N)c56)c(F)c3n2)COC4)C[C@H]1O (atropisomer, axis not shown) [Example 253D, 2-Amino-5-fluoro-4-(5-fluoro-3-((3R,4R)-3-hydroxy-4-(isopropyl(methyl)amino)pyrrolidin-1-yl)-7,9-dihydrofuro[3,4-f]quinazolin-6-yl)benzo[b]thiophene-3-carbonitrile, Atropsiomer 2] | > 2 µM | > 2 µM |
| CC(C)N(C)[C@H]1CN(c2ncc3c4c(c(-c5ncc(F)c6sc(N)c(C#N)c56)c(Cl)c3n2)COC4)C[C@H]1O (single isomer, unassigned; atropisomer 1) [Example 1D] | > 2 µM | > 2 µM |
| C[C@@H]1[C@H](N2CCN(C)CC2)CCN1c1ncc2c3c(c(-c4ncc(F)c5sc(N)c(C#N)c45)c(Cl)c2n1)COC3 (single isomer, unassigned; atropisomer 1) [Example 7D] | > 2 µM | > 2 µM |
| C[C@H]1[C@@H](N2CCN(C)CC2)CCN1c1ncc2c3c(c(-c4ncc(F)c5sc(N)c(C#N)c45)c(Cl)c2n1)COC3 (single isomer, unassigned; atropisomer 1) [Example 9D] | > 2 µM | > 2 µM |
| C[C@H]1[C@H](N2CCN(C)CC2)CCN1c1ncc2c3c(c(-c4ncc(F)c5sc(N)c(C#N)c45)c(Cl)c2n1)COC3 (single isomer, unassigned; atropisomer 1) [Example 11D] | > 2 µM | > 2 µM |
| CN1CCN([C@@H]2CCN(c3ncc4c5c(c(-c6ncc(F)c7sc(N)c(C#N)c67)c(Cl)c4n3)COC5)C2)CC1 (single isomer, unassigned; atropisomer 1) [Example 13D] | > 2 µM | > 2 µM |
| CN1CCN([C@H]2CCN(c3ncc4c5c(c(-c6ncc(F)c7sc(N)c(C#N)c67)c(Cl)c4n3)COC5)C2)CC1 (single isomer, unassigned; atropisomer 1) [Example 15D] | > 2 µM | > 2 µM |
| CN(C)[C@@H]1CN(c2ccc3c4c(c(-c5ncc(F)c6sc(N)c(C#N)c56)c(Cl)c3n2)COC4)C[C@H]1O (single isomer, unassigned; atropisomer 1) [Example 52C] | > 2 µM | > 2 µM |
| CN(C)[C@H]1CN(c2ccc3c4c(c(-c5ncc(F)c6sc(N)c(C#N)c56)c(Cl)c3n2)COC4)C[C@H]1O (single isomer, unassigned; atropisomer 1) [Example 56C] | > 2 µM | > 2 µM |
| CN(C)[C@H]1CCN(c2ncc3c4c(c(-c5ncc(F)c6sc(N)c(C#N)c56)c(Cl)c3n2)COC4)C1 (single isomer, unassigned; atropisomer 1) [Example 66B] | > 2 µM | > 2 µM |
| CN(C)[C@@H]1CN(c2ncc3c4c(c(-c5ncc(F)c6sc(N)c(C#N)c56)c(Cl)c3n2)COC4)C[C@@H]1O (single isomer, unassigned; atropisomer 1) [Example 66C] | > 2 µM | > 2 µM |
| CC(C)N(C)[C@H]1CN(c2ncc3c4c(c(-c5ncc(F)c6sc(N)c(C#N)c56)c(Cl)c3n2)COC4)C[C@@H]1O (single isomer, unassigned; atropisomer 1) [Example 72C] | > 2 µM | > 2 µM |
| CC(C)N[C@H]1CCN(c2ncc3c4c(c(-c5ncc(F)c6sc(N)c(C#N)c56)c(Cl)c3n2)COC4)C1 (single isomer, unassigned; atropisomer 1) [Example 80C] | > 2 µM | > 2 µM |
| C[C@H]1[C@@H](CN(C)C)CCN1c1ncc2c3c(c(-c4ncc(F)c5sc(N)c(C#N)c45)c(Cl)c2n1)COC3 (single isomer, unassigned; atropisomer 1) [Example 82C] | > 2 µM | > 2 µM |
| CC(C)N[C@H]1CCN(c2ncc3c4c(c(-c5c(F)ccc6sc(N)c(C#N)c56)c(F)c3n2)COC4)[C@@H]1C (single isomer, unassigned; atropisomer 1) [Example 89C] | > 2 µM | > 2 µM |
| CO[C@@H]1CN(c2ncc3c4c(c(-c5c(F)ccc6sc(N)c(C#N)c56)c(F)c3n2)COC4)C[C@H]1NC(C)C (single isomer, unassigned; atropisomer 1) [Example 91C] | > 2 µM | > 2 µM |
| CO[C@H]1CN(c2ncc3c4c(c(-c5c(F)ccc6sc(N)c(C#N)c56)c(F)c3n2)COC4)C[C@H]1NC(C)C (single isomer, unassigned; atropisomer 1) [Example 93C] | > 2 µM | > 2 µM |
| CO[C@H]1CN(c2ncc3c4c(c(-c5c(F)cnc6sc(N)c(C#N)c56)c(F)c3n2)COC4)C[C@H]1NC(C)C (single isomer, unassigned; atropisomer 1) [Example 238D] | > 2 µM | > 2 µM |
| CC(C)N(C)[C@@H]1CN(c2ncc3c4c(c(-c5ncc(F)c6sc(N)c(C#N)c56)c(Cl)c3n2)COC4)C[C@H]1O (single isomer, unassigned; atropisomer 2) [Example 4D] | > 2 µM | > 2 µM |
| CN(C)[C@@H]1CN(c2ncc3c4c(c(-c5c(F)ccc6sc(N)c(C#N)c56)c(Cl)c3n2)COC4)C[C@@H]1O (single isomer, unassigned; atropisomer 2) [Example 46B] | > 2 µM | > 2 µM |
| CN(C)[C@@H]1CN(c2ccc3c4c(c(-c5ncc(F)c6sc(N)c(C#N)c56)c(Cl)c3n2)COC4)C[C@@H]1O (single isomer, unassigned; atropisomer 2) [Example 55C] | > 2 µM | > 2 µM |
| CC(C)N[C@@H]1CN(c2ncc3c4c(c(-c5c(F)ccc6sc(N)c(C#N)c56)c(F)c3n2)COC4)C[C@@H]1C (single isomer, unassigned; atropisomer 2) [Example 59C] | > 2 µM | > 2 µM |
| N#Cc1c(N)sc2c(F)ccc(-c3c4c(c5cnc(N6CC(N7CCOCC7)C6)nc5c3Cl)COC4)c12 (single isomer, unassigned; atropisomer 2) [Example 71A, 2-Amino-4-(5-chloro-3-(3-morpholinoazetidin-1-yl)-7,9-dihydrofuro[3,4-f]quinazolin-6-yl)-7-fluorobenzo[b]thiophene-3-carbonitrile, Atropisomer 2] | > 2 µM | > 2 µM |
